# Test results: PubChem BioAssay AID445 (National Center for Advancing Translational Sciences (NCATS), 2006)
# Some of the results follow. These are further read-outs of the screen, such as a control signal, another cell line or another target. No call is given for them. Compounds called inactive in the main read-out are mostly missing here. The note in brackets gives the kind of curve behind each potency; many fits are weak.
# Assay: IkB Signaling
# Details: ABC-DLBCL IkBa-CBG/CBR dual luciferase ratio (green luciferase fused to IkBa over red control in OCI-Ly3 lymphoma cells), 4 h
# Method in brief: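 In this assay, an IκBα–CBG68 fusion accumulates when IKK-driven degradation is blocked; native CBR normalizes for cell number. OCI-Ly3 cells were treated 4 h with compound and doxycycline, then green and red light read after Chroma-Glo addition.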
# [1] = measured here: control luc red channel unless noted
smiles,measurement,setting,value
COc1ccc(CCNC(=O)CN2C(=O)COc3ccc(C)cc32)cc1OC,AC50,[1],"20 µM [falling, single point]"
COCCCNC(=O)c1c(-c2ccccc2)c(-c2ccccc2)nn(C)c1=O,AC50,[1],"0.398 µM [rising, full curve]"
Cc1cccc(Nc2nn3c(=O)c4cc5c(cc4nc3s2)OCO5)c1,AC50,measured here: IkB-luc green channel,"39.8 µM [rising, single point]"
same,AC50,measured here: control luc red channel,"39.8 µM [rising, single point]"
Cc1ccc(C(=O)NCc2ccc3c(c2)CCN3C(=O)c2ccc(C)cc2)cc1,AC50,[1],"15.8 µM [falling, partial curve, poor fit]"
COc1nc(Nc2nc3ccccc3c(=O)[nH]2)nc2ccc(C)cc12,AC50,[1],"0.0794 µM [falling, full curve]"
COc1ccccc1N1CCN(C(c2ccc(Cl)cc2)c2nnc(-c3cccc(F)c3)o2)CC1 (stereo unspecified),AC50,[1],"20 µM [falling, partial curve]"
O=C(Nc1ccc(Cl)c(-c2nc3ccccc3o2)c1)c1ccc(-c2cccc([N+](=O)[O-])c2)o1,AC50,[1],"2.51 µM [falling, single point]"
CCCSc1oc(-c2ccco2)nc1S(=O)(=O)c1ccc(Cl)cc1,AC50,[1],"20 µM [falling, partial curve]"
COc1ccc(CC(=O)Nc2sc3c(c2C(=O)Nc2cccc(C)c2)CCCCC3)cc1,AC50,[1],"31.6 µM [falling, single point]"
Cc1ccc(Cl)cc1Nc1sc(C(=O)c2ccc(F)cc2)c(N)c1S(C)(=O)=O,AC50,[1],"12.6 µM [falling, partial curve]"
O=C(CSc1nc(=O)n(Cc2ccco2)c2c1CCC2)Nc1cccc(F)c1,AC50,[1],"25.1 µM [falling, single point]"
Cc1cccc(NC(=O)CCNS(=O)(=O)c2cccc3nonc23)c1,AC50,[1],"12.6 µM [falling, single point]"
CCN1c2ccccc2-c2nc(SCC(=O)Nc3c(C)cc(C)cc3C)ncc2S1(=O)=O,AC50,[1],"0.158 µM [rising, full curve]"
COc1cccc(-n2c(-c3ccco3)nc3c(cnn3-c3ccc(C)cc3)c2=O)c1,AC50,[1],"15.8 µM [falling, partial curve]"
CCOc1ccc(NS(=O)(=O)c2ccc3[nH]cc(C(=O)NC4CCCC4)c(=O)c3c2)cc1,AC50,[1],"6.31 µM [falling, partial curve]"
O=C(O)c1cc(O)c2c(c1)C(=O)c1cccc(O)c1C2=O,AC50,[1],"1 µM [falling, full curve]"
CC1=C(C(=O)NCc2ccc(C)cc2)C2(CCCCC2)OC1=O,AC50,[1],"25.1 µM [falling, partial curve, poor fit]"
Cc1ccccc1-n1nnc2c(=O)oc3ccccc3c21,AC50,[1],"25.1 µM [falling, single point]"
Cc1ccc(C)c(Cn2c(SCC(=O)N(C)Cc3ccccc3)nc3ccccc32)c1,AC50,[1],"25.1 µM [falling, single point]"
Cc1ccc(C)c(N2CCN(C(=O)CCCCCn3c(=O)[nH]c4ccccc4c3=O)CC2)c1,AC50,[1],"10 µM [falling, partial curve]"
CN(C(=O)CSc1nc2ccc(NC(=O)CCc3ccccc3)cc2s1)c1ccccc1,AC50,[1],"7.94 µM [falling, partial curve]"
CCc1ccccc1NC(=O)C(=O)NCC(c1cccnc1)N1CCc2ccccc21 (stereo unspecified),AC50,[1],"3.16 µM [falling, full curve]"
CCOc1ccc(-c2cc(C(=O)N3CCN(c4cccc(C)c4)C(C)C3)c3ccccc3n2)cc1 (stereo unspecified),AC50,[1],"6.31 µM [falling, partial curve]"
CC(NC(=O)c1cccc(NC(=O)c2nsc3ccccc23)c1)c1ccccc1 (stereo unspecified),AC50,[1],"0.0398 µM [rising, full curve, poor fit]"
COc1ccc2c(c1)Cc1sc(NC(=O)c3cccc(F)c3)nc1-2,AC50,[1],"20 µM [falling, partial curve]"
COc1ccc(C(=O)Nc2ccc3oc(-c4ccc(OC)cc4)nc3c2)cc1,AC50,[1],"20 µM [rising, partial curve]"
Cc1ccc(NC(=O)NCC2CCN(Cc3cccc(Cl)c3)CC2)cc1Cl,AC50,[1],"39.8 µM [falling, single point]"
CCc1cccc(NC(c2nnc(-c3ccccc3)o2)c2ccc(F)cc2Cl)c1 (stereo unspecified),AC50,[1],"10 µM [falling, partial curve]"
CCCC(=O)Nc1cc(-c2nc3cccnc3s2)ccc1C,AC50,[1],"0.794 µM [rising, full curve]"
COc1cccc(CNC(=O)CSc2nc3ccccc3nc2Cc2ccc(C)cc2)c1OC,AC50,[1],"0.251 µM [falling, full curve, poor fit]"
CCc1nnc(NC(=O)c2cccc(C(=O)Nc3nnc(CC)s3)n2)s1,AC50,[1],"2.51 µM [rising, partial curve] [measured here: IkB-luc green channel]"
CCOC(=O)CNC(=O)c1cc2c(=O)n3cccc(C)c3nc2s1,AC50,[1],"5.01 µM [rising, partial curve]"
CCOc1ccccc1NC(=O)CSc1ncc(S(=O)(=O)c2ccc(C(C)(C)C)cc2)c(=O)[nH]1,AC50,[1],"12.6 µM [falling, partial curve]"
CCCCNC(=O)CCn1c(=O)c2cccn2c2ccc(F)cc21,AC50,[1],"20 µM [falling, single point]"
O=C(Cn1cnc2c(nnn2Cc2ccc(Cl)cc2)c1=O)OCc1ccccc1,AC50,[1],"12.6 µM [falling, partial curve]"
COc1ccc(Nc2ncc(C(=O)Nc3cc(Cl)c(OC)cc3OC)c3ccccc23)cc1,AC50,[1],"0.398 µM [falling, full curve]"
O=C(CCS(=O)(=O)c1nc(-c2ccc3c(c2)OCO3)cc(C(F)(F)F)n1)Nc1ccc(F)c(Cl)c1,AC50,[1],"7.94 µM [falling, partial curve]"
O=C(Nc1nc2c(ccc3ccccc32)s1)c1ccco1,AC50,[1],"12.6 µM [falling, partial curve]"
CCOC(=O)c1c(C2COc3ccccc3O2)csc1N (stereo unspecified),AC50,[1],"39.8 µM [falling, single point]"
COc1ccc(N2CCN(C(=O)c3ccc(Nc4nc5ccccc5n5nnnc45)cc3)CC2)cc1,AC50,[1],"3.16 µM [falling, full curve]"

# An excerpt of these results, as tab-separated lines.
smiles	measurement	setting	value
Cc1ccc(NC(=O)NCC2CCN(Cc3cccc(Cl)c3)CC2)cc1Cl	AC50	[1]	39.8 µM [falling, single point]
CCc1cccc(NC(c2nnc(-c3ccccc3)o2)c2ccc(F)cc2Cl)c1 (stereo unspecified)	AC50	[1]	10 µM [falling, partial curve]
CCCC(=O)Nc1cc(-c2nc3cccnc3s2)ccc1C	AC50	[1]	0.794 µM [rising, full curve]
